Data as given in publication PMC4239081, “Differential Interaction Kinetics of a Bipolar Structure-Specific Endonuclease with DNA Flaps Revealed by Single-Molecule Imaging”.
Positions count from the first letter of the chain named. For at least one entry, the source does not settle the construct or the ends of the probe. For some of these results: Weaker means in comparison with the reference protein, sequence or condition of that experiment. Where a protein sequence is shown, tags need not be part of it. For some of these results: At least one verdict was read from the data and is not stated in words by the source.

What was measured:
[1] = molecular target: T1, NucS (PabNucS) (Pyrococcus abyssi) (UniProt Q9V2E8); assay: single-molecule TIRF; conditions: dissociation independent of flap length; biotin; Imaging buffer B2: 20 mM HEPES, 150 mM NaCl (or 50 mM), 0.1 mg/ml casein Blocking Reagent; pH not given; 23 C without divalent cations; recombinant protein; protein details: Alexa488 label; folded or branched DNA
T1 sequence (looked up, limits assumed): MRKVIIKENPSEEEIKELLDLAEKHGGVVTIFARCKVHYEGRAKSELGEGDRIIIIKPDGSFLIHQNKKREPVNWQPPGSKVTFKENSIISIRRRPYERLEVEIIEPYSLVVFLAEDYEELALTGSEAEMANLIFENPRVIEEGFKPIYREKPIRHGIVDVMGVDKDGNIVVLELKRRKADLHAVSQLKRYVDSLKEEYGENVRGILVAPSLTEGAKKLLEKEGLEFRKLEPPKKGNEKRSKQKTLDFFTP

[2] = molecular target: T2, NucS R70A (Pyrococcus abyssi) (UniProt Q9V2E8); assay: single-molecule TIRF; conditions: 150 mM NaCl, 23 C, biotin (two at each end of 49N), Imaging buffer B2: 20 mM HEPES, 150 mM NaCl (or 50 mM), 0.1 mg/ml casein Blocking Reagent, pH not given, 23 C without divalent cations, recombinant protein, protein details: Alexa488 label, folded or branched DNA
T2 sequence (looked up, limits assumed): T1 sequence (looked up, limits assumed) with R70A

AGCTACCATGCCTGCACGAATTAAGCAATTCGTAATCATGGTCATAGCT / GATGTCAAGCGATGTCAAGCAGTCCTAAGGAATTCGTGCAGGCATGGTAGCT / AGCTATGATCATGATTACGAATTGCTT [5'-flap, 30 nt flap (F5D52)]
binding result [1]: binds

AGCTACCATGCCTGCACGAATTAAGCAATTCGTAATCATGGTCATAGCT / AGCTATGACCATGATTACGAATTGCTTGGAATCCTGACGAACTGTAG / AATTCGTGCAGGCATGGTAGCT [3'-flap (49N/F3D47/D22)]
binding result ([2]; kon 0.7e6 M-1s-1 (order 3' then 5' as in text) vs 8.5e6 for WT, label: Alexa488 on F3D47): binds more weakly

AGCTACCATGCCTGCACGAATTAAGCAATTCGTAATCATGGTCATAGCT / GATGTCAAGCAGTCCTAAGGAATTCGTGCAGGCATGGTAGCT / AGCTATGATCATGATTACGAATTGCTT [5'-flap (49N/F5D42/D27)]
binding result ([2]; kon 0.15e6 M-1s-1 vs 10e6 for WT, label: Alexa488 on F5D42): binds more weakly

AGCTACCATGCCTGCACGAATTAAGCAATTCGTAATCATGGTCATAGCT / AGCTATGACCATGATTACGAATTGCTTGGAATCCTGACGAACTGTAGGGAATCCTGA / AATTCGTGCAGGCATGGTAGCT [3'-flap, 30 nt flap (F3D57)]
binding result [1]: binds
